Assay results as given in PubChem BioAssay (EPA / NIEHS).
This list was built around the results that the source calls inconclusive (neither active nor inactive); the mix of calls is not that of the screen. Potencies of inconclusive entries are doubtful fits and often do not repeat. The source made the active and inactive calls. How the source made its calls: active means hit-call score of the fitted dose curve at least 0.9, where 1 is the maximum; inconclusive means response in the unintended direction; inactive means score below 0.9.

Sequences of proteins named here, by UniProt entry; tags and fusion partners are left off. A change or cut given only in a name is not applied to a line headed by its entry.
UniProt Q9PVE4: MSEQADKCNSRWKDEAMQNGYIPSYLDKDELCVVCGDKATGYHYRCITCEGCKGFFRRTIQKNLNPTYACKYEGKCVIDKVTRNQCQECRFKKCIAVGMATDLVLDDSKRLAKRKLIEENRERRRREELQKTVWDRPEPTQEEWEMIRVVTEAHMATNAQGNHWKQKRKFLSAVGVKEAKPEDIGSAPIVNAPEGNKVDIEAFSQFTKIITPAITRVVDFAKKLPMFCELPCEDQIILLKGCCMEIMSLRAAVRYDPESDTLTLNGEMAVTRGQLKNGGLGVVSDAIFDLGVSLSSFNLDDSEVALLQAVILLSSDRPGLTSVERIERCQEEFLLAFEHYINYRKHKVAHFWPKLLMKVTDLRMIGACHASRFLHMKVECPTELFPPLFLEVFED

Target: zebrafish Thyroid Hormone Receptor beta (TRb), thrb (gene 30607) (UniProt Q9PVE4)
Experiment: ATG_zfTRb_XSP1: Attagene TRANS-FACTORIAL Multi-Species (XSP1) HepG2 Assay for zebrafish Thyroid Hormone Receptor beta (TRb) (AID 2283809)
Description: ATG_XSP1_multi-species_TRANS is a cell-based, multiplexed assay created by modifying the existing Attagene TRANS-FACTORIAL system to include a panel of nuclear receptors from some or all the following species: human (Homo sapiens), mouse (Mus musculus), frog (Xenopus laevis), zebrafish (Danio rerio), chicken (Gallus gallus), and turtle (Chrysemys picta). The ECOTOX-FACTORIAL format uses HepG2, a human liver cell line, with measurements taken at 24 hours after chemical dosing in a 24-well plate. Xsp1 included 3 nM 6-alpha-fluorotestosterone to partially stimulate the androgen receptor.ATG_zfTRb_XSP1 is one of 29 assay components measured or calculated from the ATG_XSP1_multi-species_TRANS assay. It is designed to make measurements of mRNA induction, a form of inducible reporter, as detected with fluorescence intensity signals by Reverse transcription polymerase chain reaction (RT-PCR) and Capillary electrophoresis technology.The assay endpoint ATG_zfTRb_XSP1 was analyzed in the positive analysis fitting direction relative to DMSO as the negative control and baseline of activity. Using a type of inducible reporter, measures of mRNA for gain-of-signal activity can be used to understand the reporter gene at the transcription factor-level as they relate to the gene TR. Furthermore, this assay endpoint can be referred to as a primary readout, because this assay has produced multiple assay endpoints where this one serves a reporter gene function. To generalize the intended target to other relatable targets, this assay endpoint is annotated to the nuclear receptor intended target family, where the subfamily is non-steroidal.
Human liver HepG2 cells are transiently transfected with multiple reporter transcription units (MRTUs) in 6-well plates using FuGene 6 reagent (Roche; 3 ml FuGene/1 mg DNA). The MRTU constructs are regulated by a cis-regulating element (promoter). […] A major difference between the CIS and TRANS system is that in CIS activities of endogenous TFs are measured, whereas the TRANS assay evaluates changes in activities of exogenous, chimeric NR-Gal4 proteins. […] At the end of 24 hour incubation, total RNA was isolated using TriZol reagent (Invitrogen). The isolated RNA is then reverse-transcribed using oligo(dT) primer and Mo-MLV reverse transcriptase (Invitrogen) with DNAse I (Ambion) treatment for 30 min. The one-tenth of the produced cDNA was amplified by PCR using Taq DNA polymerase (Invitrogen) and two reporter sequence-specific primers. The PCR products were fluorescently labeled by primer extension with 6-arboxyfluorescein (6-FAM) 5'-labeled reporter sequence-specific primer (2 min at 95 C, 20 s at 68 C and 10 min at 72 C) and these products were digested with 5U of HpaI (New England Biolabs) for 2h at 37 C. The fragments were purified using Qiaquick PCR columns (Qiagen), analyzed on an ABI 3130xL genetic analyzer (Applied Biosystems) with peak positions identified by using a set of X-rhodamine (ROX)-labeled MapMarker1000 molecular weight standards (BioVentures). The raw capillary electrophoresis data was processed using Attagraph software (Attagene).

| SMILES | AC50 |
| --- | --- |
| C[C@]12CCC(=O)C[C@@H]1CC[C@@H]1[C@@H]2CC[C@]2(C)[C@@H](O)CC[C@@H]12 | inconclusive: 0.00413 µM |
| C=CC1(C)OC(=O)N(c2cc(Cl)cc(Cl)c2)C1=O (configuration not stated) | active: 51.6 µM |
| CC(C)(O)C(=O)Nc1ccc([N+](=O)[O-])c(C(F)(F)F)c1 | active: 50 µM |
| Cc1c(COC(=O)[C@@H]2[C@H](/C=C(\Cl)C(F)(F)F)C2(C)C)cccc1-c1ccccc1 | inconclusive: 100 µM |
| CCCN(CCOc1c(Cl)cc(Cl)cc1Cl)C(=O)n1ccnc1 | inconclusive: 33.4 µM |
| Clc1ccc(C(c2ccc(Cl)cc2)C(Cl)Cl)cc1 | inconclusive: 54 µM |
| CCCCNC(=O)OCC#CI | inconclusive: 0.00423 µM |
| CCOCN(C(=O)CCl)c1c(C)cccc1CC | inconclusive: 100 µM |
| CC(=O)c1cc2c(cc1C)C(C)(C)C(C)CC2(C)C (configuration not stated) | inconclusive: 49.7 µM |
| CCC[CH2][Sn]([Cl])([CH2]CCC)[CH2]CCC | active: 0.084 µM |
| C[C@]12CCC(=O)C=C1CC[C@@H]1[C@@H]2CC[C@]2(C)C(=O)CC[C@@H]12 | inconclusive: 0.1 µM |
| CCCN(CCC)c1c([N+](=O)[O-])cc(S(N)(=O)=O)cc1[N+](=O)[O-] | active: 9.16 µM |
